Measured values published in publication PMC11959843.
Where two headings read alike, the source gives them in different places. Results are given in words; binding and its absence hold for the method and conditions named. Binding seen in cells or lysates may run through a third protein. Some entries that bind do so weakly or less than the wild type. Where a sequence is shown, tags or fusion partners need not be part of it.

By UniProt entry, the sequences of proteins in these tests, tags left out.
UniProt Q12778: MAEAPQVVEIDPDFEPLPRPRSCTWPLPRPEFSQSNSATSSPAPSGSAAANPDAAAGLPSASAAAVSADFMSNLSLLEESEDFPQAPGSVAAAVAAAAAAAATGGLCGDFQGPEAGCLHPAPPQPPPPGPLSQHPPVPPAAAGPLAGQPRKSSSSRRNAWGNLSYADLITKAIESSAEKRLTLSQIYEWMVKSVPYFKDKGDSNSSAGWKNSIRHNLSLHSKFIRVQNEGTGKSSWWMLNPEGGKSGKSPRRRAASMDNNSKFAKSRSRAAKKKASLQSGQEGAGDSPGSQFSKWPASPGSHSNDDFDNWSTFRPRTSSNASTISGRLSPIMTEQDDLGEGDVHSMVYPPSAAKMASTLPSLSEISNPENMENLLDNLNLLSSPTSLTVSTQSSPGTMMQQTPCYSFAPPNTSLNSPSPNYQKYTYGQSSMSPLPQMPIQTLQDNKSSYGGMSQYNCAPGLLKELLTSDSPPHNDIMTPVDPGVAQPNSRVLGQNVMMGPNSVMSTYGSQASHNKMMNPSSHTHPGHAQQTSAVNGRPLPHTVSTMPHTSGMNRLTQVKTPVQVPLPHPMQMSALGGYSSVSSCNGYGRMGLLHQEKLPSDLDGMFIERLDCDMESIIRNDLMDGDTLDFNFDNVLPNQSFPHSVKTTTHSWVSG

T1: His-SMYD5 (human), from pCMV-6×His-SMYD5(human)-Neo (human) (UniProt Q6GMV2)
T1 sequence: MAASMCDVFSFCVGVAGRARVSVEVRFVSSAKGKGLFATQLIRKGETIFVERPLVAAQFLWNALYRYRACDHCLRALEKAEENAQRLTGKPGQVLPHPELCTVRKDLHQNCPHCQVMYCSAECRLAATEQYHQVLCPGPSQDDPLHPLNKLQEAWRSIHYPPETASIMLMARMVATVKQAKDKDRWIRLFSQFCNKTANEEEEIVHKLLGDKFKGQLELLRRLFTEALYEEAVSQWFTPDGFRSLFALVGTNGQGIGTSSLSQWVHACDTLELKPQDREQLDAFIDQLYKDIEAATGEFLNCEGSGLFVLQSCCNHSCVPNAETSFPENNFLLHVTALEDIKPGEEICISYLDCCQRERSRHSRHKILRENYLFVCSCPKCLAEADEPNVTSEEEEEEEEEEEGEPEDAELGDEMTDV


Tests used:
[1] = target: T1, His-SMYD5 (human), from pCMV-6×His-SMYD5(human)-Neo (human); test: co-IP; HEK293T cotransfected with the tagged plasmids, lysed in IP-RIPA buffer; lysates (500-1000 μg) immunoprecipitated with anti-His antibody overnight at 4 °C (IgG as control), Protein A/G PLUS-Agarose, washed three times with PBS, immunoblot
[2] = target: T1, His-SMYD5 (human), from pCMV-6×His-SMYD5(human)-Neo (human); test: as above; remark: listed apart in the source

binding [1] | binding [2] | Molecule
binds | – | HA-FoxO1 (human), from pCDNA3.1-FOXO1(human)-3×HA-SV40-Neo (from UniProt Q12778 1-655)
– | binds | Flag-HK2 (human), from pCMV-3×FLAG-HK2(human)-Neo (enzyme, UniProt P52789 1-917) MIASHLLAYFFTELNHDQVQKVDQYLYHMRLSDETLLEISKRFRKEMEKGLGATTHPTAAVKMLPTFVRSTPDGTEHGEFLALDLGGTNFRVLWVKVTDNGLQKVEMENQIYAIPEDIMRGSGTQLFDHIAECLANFMDKLQIKDKKLPLGFTFSFPCHQTKLDESFLVSWTKGFKSSGVEGRDVVALIRKAIQRRGDFDIDIVAVVNDTVGTMMTCGYDDHNCEIGLIVGTGSNACYMEEMRHIDMVEGDEGRMCINMEWGAFGDDGSLNDIRTEFDQEIDMGSLNPGKQLFEKMISGMYMGELVRLILVKMAKEELLFGGKLSPELLNTGRFETKDISDIEGEKDGIRKAREVLMRLGLDPTQEDCVATHRICQIVSTRSASLCAATLAAVLQRIKENKGEERLRSTIGVDGSVYKKHPHFAKRLHKTVRRLVPGCDVRFLRSEDGSGKGAAMVTAVAYRLADQHRARQKTLEHLQLSHDQLLEVKRRMKVEMERGLSKETHASAPVKMLPTYVCATPDGTEKGDFLALDLGGTNFRVLLVRVRNGKWGGVEMHNKIYAIPQEVMHGTGDELFDHIVQCIADFLEYMGMKGVSLPLGFTFSFPCQQNSLDESILLKWTKGFKASGCEGEDVVTLLKEAIHRREEFDLDVVAVVNDTVGTMMTCGFEDPHCEVGLIVGTGSNACYMEEMRNVELVEGEEGRMCVNMEWGAFGDNGCLDDFRTEFDVAVDELSLNPGKQRFEKMISGMYLGEIVRNILIDFTKRGLLFRGRISERLKTRGIFETKFLSQIESDCLALLQVRAILQHLGLESTCDDSIIVKEVCTVVARRAAQLCGAGMAAVVDRIRENRGLDALKVTVGVDGTLYKLHPHFAKVMHETVKDLAPKCDVSFLQSEDGSGKGAALITAVACRIREAGQR
